# According to PubChem BioAssay AID485298 (National Center for Advancing Translational Sciences (NCATS), 2010):
# Among all 320,000 compounds or so, about 740 (0.23%) were called active. This list was built around the results that the source calls inconclusive (neither active nor inactive); the mix of calls is not that of the screen. Calls come from the whole dose curve; as a rule, active = well fitted activation curve with a large enough effect; inconclusive = small, poorly fitted or top-dose-only effect; inactive = no such curve, though single readings can be large or run the other way. Potencies beside an inconclusive call are fits to weak or partial responses and may not hold up.
# Assay: qHTS Assay for Small Molecule Inhibitors of Mitochondrial Division or Activators of Mitochondrial Fusion; note: nearly all actives have a fitted effect of over 45% in size;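 for growth rescue (activation): temperature-sensitive fusion mutants such as fzo1-1 at 37 °C on non-fermentable ethanol glycerol medium; % of control where 0% means no effect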
# Conditions: S. cerevisiae fusion-defective mutant growth rescue, CellTiterGlo 48 h; growth rescue (activation): at 46.1 µM (top of the series) unless noted
# How it was run: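 Yeast fusion mutant, YPEG (non-fermentable carbon), compound, 48 h at 37C non-permissive; CellTiterGlo added, 10 min RT, luminescence read. Rescued growth = division inhibition.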
# Potency is the fitted concentration of half-maximal effect.
SMILES,Potency,growth rescue (activation)
CCCC(c1nnnn1C1CCCC1)N1CCN(c2ccccc2F)CC1 (stereo not given),active: 8.91 µM,–
CC(=O)c1cccc(NC(=O)C2C(c3ccccc3)C2(Cl)Cl)c1 (stereo not given),"inconclusive: 14.1 µM [activator, single point]",–
Cc1nc2nc(NCc3cccs3)nn2c(C)c1Cl,–,inactive: -0.344%
CN(C)S(=O)(=O)c1ccc(C(=O)OCC2CC2(Cl)Cl)cc1 (stereo not given),"inconclusive: 15.8 µM [activator, partial curve, poor fit]",–
CC(Oc1cccnc1[N+](=O)[O-])C(=O)Nc1ccc(Cl)cn1 (stereo not given),–,inactive: 5.61%
O=C(NCc1ccccc1)c1cc2ccc(O)cc2oc1=O,–,inactive: -20%
CCc1cc[n+](-c2nc3ccccc3nc2[N-]S(=O)(=O)c2ccc(Br)s2)cc1,"inconclusive: 25.1 µM [activator, single point]",–
CCOC(=O)c1ccc(NC(=O)CN(C)S(=O)(=O)c2ccc(Br)s2)cc1,"inconclusive: 7.94 µM [activator, partial curve]",–
CCOC(=O)c1c(C=O)c(C)n(Cc2ccc(C)cc2)c1C,"inconclusive: 15.8 µM [activator, partial curve]",–
COc1cc(/C=N/Nc2nncc3ccccc23)cc(OC)c1OC,–,inactive: 3.74%
S=C(Nc1ccc(Oc2ccccc2)cc1)NC1CCCCC1,"inconclusive: 17.8 µM [activator, single point]",–
O=C(NNC1=NC2(CCCC2)Cc2ccccc21)c1ccncc1,"inconclusive: 35.5 µM [activator, single point]",–
O=C(NCc1nnnn1-c1ccc(F)c(F)c1)c1ccc2ccccc2c1,"inconclusive: 20 µM [activator, single point]",–
O=C(NC(=S)Nc1ccc2c(c1)OCCO2)c1ccco1,–,inactive: -6.16%
CC1CCCN(C2(O)C(=O)Nc3ccc(Br)cc32)C1 (stereo not given),"inconclusive: 14.1 µM [activator, partial curve]",–
C[C@H]1CC[C@H]2C(=O)N3[C@H](c4ccccc4Br)[C@@H](C)CC[C@H]3C(=O)N2[C@@H]1c1ccccc1Br,active: 22.4 µM,–
CN(c1ccccc1)S(=O)(=O)c1cccc(NC(=O)CSc2nncs2)c1,–,inactive: 0.163%
O=C(NCC(c1cccs1)N1CCOCC1)c1cn(-c2ccccc2)nc1-c1ccc(Cl)cc1 (stereo not given),"inconclusive: 12.6 µM [activator, partial curve]",–
O=C(COc1ccc([N+](=O)[O-])cc1)N(Cc1ccccc1)Cc1ccccc1,"inconclusive: 12.6 µM [activator, partial curve]",–
COc1ccc(-c2cnc(SCC(=O)Nc3ccc4c(c3)OCO4)n2Cc2ccco2)cc1,–,inactive: 11.2%
COc1cccc(-c2sc3ccc(OC)cc3c2C#CC2(O)CCCCC2)c1,"inconclusive: 12.6 µM [activator, single point]",–
CCCCN(C)C(=O)Cc1c(OC)ccc2cc(Br)ccc12,"inconclusive: 25.1 µM [activator, single point]",–
Cc1sc2ncnc(N3CCC(C(=O)Nc4ccc(F)cc4Cl)CC3)c2c1C,"inconclusive: 12.6 µM [activator, single point]",–
O=c1c(Cl)c(N/N=C/c2ccc(Cl)cc2)cnn1-c1ccccc1,active: 8.91 µM,–
CC(C)C(=O)Nc1ccc(C(=O)NNC(=S)NC(=O)c2ccco2)cc1,"inconclusive: 31.6 µM [activator, single point]",–

SMILES,Potency,growth rescue (activation)
CNCCc1cnc(CCC(c2ccccc2)c2ccccc2)[nH]1,"inconclusive: 10.3 µM [activator, partial curve]",–
CCOc1ccc(NC(=O)CN(C)C(=O)c2cc(-c3ccc(OC)cc3)nc3ccccc23)cc1OCC,"inconclusive: 20 µM [activator, single point]",–
CCOc1ccc(NC(=S)Nc2ccc(OC)cc2)cc1,–,inactive: -15.2%
CCOC(=O)c1c(-c2ccccc2)csc1NC(=O)CSc1nnnn1C,"inconclusive: 11.2 µM [activator, partial curve]",–
O=c1c2cc(N3CCOCC3)ccc2[nH]c(=S)n1CCc1ccccc1,"inconclusive: 31.6 µM [activator, single point]",–
Cc1cccc(C)c1NC(=O)CNC(=O)c1ccccc1,"inconclusive: 3.98 µM [activator, partial curve]",–
O=c1cc(C(F)(F)F)oc2c1ccc1ccccc12,–,inactive: -8.29%
O=C(Nc1cc(Br)ccc1O)C1CC(c2ccccc2Cl)=NO1 (stereo not given),"inconclusive: 14.1 µM [activator, single point]",–
CCn1c2ccccc2c2cc(Nc3cc(C)nc4ncnn34)ccc21,active: 15.8 µM,–
C=CCn1c(SCC(=O)N2CCCCCC2)nc2ccccc2c1=O,"inconclusive: 5.62 µM [activator, partial curve]",–
COc1cccc(-c2cc(=O)[nH][nH]2)c1,"inconclusive: 1.41 µM [activator, partial curve]",–
CCOC(=O)CNc1ncc(C(F)(F)F)cc1Cl,"inconclusive: 12.6 µM [activator, partial curve]",–
O=S(=O)(NCCC1=CCCCC1)c1cccc(Br)c1,"inconclusive: 22.4 µM [activator, single point]",–
Cc1ccc(C(C)C)c(OCC(=O)Nc2cccc(S(=O)(=O)NC3=NCCCCC3)c2)c1,"inconclusive: 15.8 µM [activator, partial curve]",–
Cc1cc(C)cc(Nc2ccc(C(=O)O)cc2[N+](=O)[O-])c1,"inconclusive: 35.5 µM [activator, partial curve]",–
CC1=NS(=O)(=O)c2cc(Cl)ccc2N1,"inconclusive: 0.058 µM [activator, full curve]",–
CCc1sc(C(=O)N2CCc3ccccc32)cc1C,"inconclusive: 28.2 µM [activator, single point]",–
COc1ccc(-n2c(=S)[nH]c3c(sc(=S)n3-c3ccccc3)c2=O)c(OC)c1,–,inactive: 2.3%
Cn1cccc1/C=N\NC(=O)Cc1ccc(Br)c2ccccc12,–,inactive: -5.04%
Cc1cccc(-c2noc(CCC(=O)NC3CCCCC3)n2)c1,–,inactive: -5.74%
COc1ccccc1C(=O)NCCNC(=O)c1ccco1,–,inactive: -3.41%
CCCC1=Nc2cc(C(=O)NCc3ccco3)ccc2Sc2ccccc21,active: 31.6 µM,–
Cc1ccc(C(=O)NCc2nnc(SCC(=O)NC(C)c3ccccc3)n2C)cc1 (stereo not given),–,inactive: -3.23%
CCN1CCN(CCOc2cccc(Oc3ccccc3)c2)CC1,–,inactive: -3.52%
CN(CCOc1ccc(Br)cc1)C(=O)CNC(=O)c1ccc2ccccc2c1,"inconclusive: 6.31 µM [activator, partial curve]",–

SMILES,Potency,growth rescue (activation)
COc1ccc2[nH]c(=O)c(CN(Cc3cccs3)C(=S)Nc3ccccc3)cc2c1,"inconclusive: 11.2 µM [activator, partial curve]",–
O=C(COC(=O)c1ccccc1OCc1ccc(F)cc1)NCC1CCCO1 (stereo not given),"inconclusive: 5.62 µM [activator, single point]",–
O=C(COc1ccc(F)cc1)Nc1nnc(S(=O)(=O)N2CCCC2)s1,–,inactive: 1.03%
CCC(C)NC(=O)COC(=O)c1oc2ccccc2c1CSc1ccc(Cl)cc1 (stereo not given),–,inactive: 2.49%
O=C(CSc1nc2ccccc2o1)NC1CCCC1,"inconclusive: 25.1 µM [activator, single point]",–
NCCCCCC(=O)O,"inconclusive: 0.146 µM [activator, full curve, poor fit]",–
COc1ccccc1CNn1c(-c2cccc(C)c2)nc2ccccc2c1=O,"inconclusive: 35.5 µM [activator, single point]",–
OC(COc1ccccc1)CN(Cc1ccccc1)CC(O)COc1ccccc1 (stereo not given),"inconclusive: 35.5 µM [activator, single point]",–
COc1ccc(/C=C/C(=O)NC(C)CCc2ccccc2)cc1OC (stereo not given),–,inactive: 11.6%
COc1ccc(C(=O)O/N=C(\N)c2ccc(Br)cc2)cc1,active: 10 µM,–
COc1ccc(-c2csc3ncnc(Oc4ccc5c(C)cc(=O)oc5c4)c23)cc1,"inconclusive: 14.1 µM [activator, single point]",–
COc1ccccc1N1CCN(C(=O)c2sc3nc(-c4ccc(F)cc4)cn3c2C)CC1,"inconclusive: 31.6 µM [activator, single point]",–
Cc1ccc2c(c1)c1c(n2CC2COC(C)(C)O2)C(=O)CCC1 (stereo not given),–,inactive: -0.899%
CCc1cc(=O)[nH]c(SCc2cccc3ccccc23)n1,"inconclusive: 20 µM [activator, single point]",–
CSc1cccc(NC(=O)c2cccc3cccnc23)c1,–,inactive: 29.2%
CCOC(=O)c1c(-c2ccccc2)csc1NC(=O)CSc1nncs1,"inconclusive: 14.1 µM [activator, partial curve]",–
COc1ccc(NS(=O)(=O)c2ccc(-c3coc(C)n3)cc2)cc1,–,inactive: 16.8%
COc1ccc(NC(=O)CSCC(=O)N2c3ccccc3CCc3ccccc32)cc1,"inconclusive: 35.5 µM [activator, single point]",–
Cc1oc2c(CN3CCCC3)c(O)ccc2c(=O)c1-c1ccc(Br)cc1,–,inactive: 8.03%
COc1ccccc1C(=O)Oc1cc(N)n(S(=O)(=O)c2ccc(C)cc2)n1,–,inactive: 0.562%
Cc1ccnc(SCc2cc(=O)c(OC(=O)c3ccc(Cl)c([N+](=O)[O-])c3)co2)n1,–,inactive: 4.92%
Cc1nn(C)c(C)c1C(C)NC(=O)c1ccc(OC2CCN(Cc3ccccn3)CC2)cc1 (stereo not given),"inconclusive: 11.2 µM [activator, partial curve]",–
Cc1ccc(C(C)C)c(OCc2ccc(C(=O)N/N=C/c3ccc(O)cc3O)cc2)c1,–,inactive: -2.04%
Cc1cccc(N2CCN(C(=O)CCn3c(=S)[nH]c4cc5c(cc4c3=O)OCO5)CC2C)c1 (stereo not given),–,inactive: 8.63%
Cc1[nH]c2ccccc2c1-c1csc(NC(=O)CSCCO)n1,active: 20 µM,–

# Copied from the list.
# Value for CCOc1ccc(NC(=O)CN(C)C(=O)c2cc(-c3ccc(OC)cc3)nc3ccccc23)cc1OCC under Potency: inconclusive: 20 µM [activator, single point]
# Value for O=C(Nc1cc(Br)ccc1O)C1CC(c2ccccc2Cl)=NO1 (stereo not given) under Potency: inconclusive: 14.1 µM [activator, single point]
# Value for CCc1cc[n+](-c2nc3ccccc3nc2[N-]S(=O)(=O)c2ccc(Br)s2)cc1 under Potency: inconclusive: 25.1 µM [activator, single point]
